The assay concerns the target T1, human CC chemokine receptor 1 (human CCR1) (human) (UniProt P32246).
T1 sequence: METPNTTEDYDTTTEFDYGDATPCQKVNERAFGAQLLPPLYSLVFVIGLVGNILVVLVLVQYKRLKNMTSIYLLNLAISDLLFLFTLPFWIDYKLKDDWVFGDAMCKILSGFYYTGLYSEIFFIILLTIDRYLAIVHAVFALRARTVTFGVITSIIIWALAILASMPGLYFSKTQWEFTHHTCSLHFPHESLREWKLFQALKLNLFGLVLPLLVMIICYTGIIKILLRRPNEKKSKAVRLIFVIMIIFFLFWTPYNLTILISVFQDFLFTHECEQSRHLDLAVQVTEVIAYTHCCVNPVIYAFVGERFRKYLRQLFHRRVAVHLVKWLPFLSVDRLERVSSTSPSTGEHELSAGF
As to the kind of experiment: flow cytometry on CHO-S-hCCR1 cells; bound = fluorescence 10 times or more that of isotype control hzDNP1. In general terms: In flow cytometry, cells or beads pass a laser one at a time.

Positions count from the first letter of the chain named. These are yes or no findings as the source states them, for the method shown. Some entries that bind do so weakly or less than the wild type.

B1: hzKM5907 LV6HV0 antibody (antibody, V domains shown)
VH: EVQLLESGGGLVQPGGSLRLSCAASGFTFSRYGMSWVRQAPGKGLEWVSSISATFTYTYYTDNVKGRFTISRDNSKNTLYLQMNSLRAEDTAVYYCAKQDNYAWFDSWGQGTLVTVSS
VL: DVVMTQTPLSLPVTLGEPASISCRSSQSIVHSNGNTFLEWYLKKPGQSPKLLIYKVSSRFSGVPDRFSGSGSGTDFTLKISRVEAEDVGVYYCFQGSHIPWTFGGGTKLEIK
Regarding B1, the binding result is recorded as “binds”.

B2: hzKM5907 LV6HV7 antibody (antibody, V domains shown)
VH: B1 VH with L4V, G44R, S49A, A92G, V93M, A97T, K98R
VL: B1 VL
For the molecule B2, the binding result was “binds”.
